Data source: PubChem BioAssay AID1671195 (Yale University, 2021)
Assay: 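Knockdowns that increase or decrease uptake of fluorescent LDL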 (primary screen). Cells: human Huh7 hepatoma cells. Reagents: siRNA pool against human genes, 18 nM. Duration: about 2 to 2.5 days of knockdown, then 8 h LDL uptake. Treatment: DiI-labelled LDL at 30 µg/ml for 8 h, in lipoprotein-deficient serum medium. Measurement: 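Fluorescent LDL signal imaged in cells, scaled to the plate median, robust z-score for each replicate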. Reading the numbers: robust z-score: higher = more LDL uptake after knockdown. Hit rule: 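Active when two or more replicates show a robust z-score above 2 or below -2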.
This is a random part of about 22,000 reagents tested. About 1,510 of them (6.9%) count as active. 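Active includes knockdowns raising or lowering LDL uptake; positive z-scores mean more uptake, negative mean less.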

target gene	robust z-score, replicate 1	robust z-score, replicate 2	robust z-score, replicate 3	outcome
GPR161	-0.326	-0.68	0.246	inactive
SCN1A	-0.041	-0.00632	-0.168	inactive
NFASC	-0.281	0.297	0.876	inactive
CD6	0.352	0.886	0.853	inactive
JSRP1	-0.111	-0.627	-0.677	inactive
FIBP	1.56	0.565	2.36	inactive
RBMX2	1.25	0.779	0.807	inactive
AGR3	-1.39	-1.86	-1.15	inactive
TRMT10C	0.0913	-0.608	0.454	inactive
CCDC73	0.332	0.131	0.0957	inactive
PABIR3	-0.299	-0.597	0.222	inactive
LOC441059 (retired record)	0.528	0.386	0.0946	inactive

The list goes on (2 carried over from the part before).
target gene	robust z-score, replicate 1	robust z-score, replicate 2	robust z-score, replicate 3	outcome
PABIR3	-0.299	-0.597	0.222	inactive
LOC441059 (retired record)	0.528	0.386	0.0946	inactive
TMEM64	0.506	0.434	0.615	inactive
MBD3L2	0.131	0.155	-0.661	inactive
FGFR1	0.353	0.88	-0.31	inactive
LOC390338 (retired record)	0.0162	-0.0701	0.0969	inactive
LGALS14	1.31	1.27	1.29	inactive
SPATA2L	-1.34	0.122	0.175	inactive
IRF8	3.65	3.98	4.21	active
SLC66A1LP	-0.386	0.127	-0.327	inactive
ZNF318	0.601	1.49	2.29	inactive
SPON1	0.619	0.429	0.248	inactive
FBXO3	0.891	1.9	0.888	inactive
LOC286177	-1.05	-1.07	-1.23	inactive
PDZD9	-0.363	-0.481	-0.312	inactive
PLEKHA2	-0.758	-0.107	-0.506	inactive
FTHL17	0.173	-0.711	0.559	inactive
OR4C16	0.384	0.473	0.913	inactive
